Test results taken from publication PMC9334759.
Like-named read-outs stand apart in the source and are kept apart here. These are yes or no findings as the source states them, for the method shown. Binding seen in cells or lysates may run through a third protein. Here binding means that the protein was enriched with, or labelled near, the bait; the list need not be complete. Each block holds one molecule with its values, some of them ahead of it.

Chains of the proteins cited; added tags and fusions are not shown. Lines headed by an entry give the natural chain unless they say otherwise; changes in a name come on top.
UniProt P78552: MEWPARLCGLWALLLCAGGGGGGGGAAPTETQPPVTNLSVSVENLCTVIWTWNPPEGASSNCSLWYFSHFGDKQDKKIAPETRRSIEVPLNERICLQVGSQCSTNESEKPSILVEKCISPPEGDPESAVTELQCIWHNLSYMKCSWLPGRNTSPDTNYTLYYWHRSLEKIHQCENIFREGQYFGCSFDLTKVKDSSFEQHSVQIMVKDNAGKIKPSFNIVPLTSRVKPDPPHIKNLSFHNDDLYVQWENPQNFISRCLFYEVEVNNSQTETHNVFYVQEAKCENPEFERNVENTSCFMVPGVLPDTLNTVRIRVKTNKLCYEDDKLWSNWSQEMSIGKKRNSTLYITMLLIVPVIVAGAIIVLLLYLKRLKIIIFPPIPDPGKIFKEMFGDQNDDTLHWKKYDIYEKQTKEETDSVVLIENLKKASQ
UniProt Q15386: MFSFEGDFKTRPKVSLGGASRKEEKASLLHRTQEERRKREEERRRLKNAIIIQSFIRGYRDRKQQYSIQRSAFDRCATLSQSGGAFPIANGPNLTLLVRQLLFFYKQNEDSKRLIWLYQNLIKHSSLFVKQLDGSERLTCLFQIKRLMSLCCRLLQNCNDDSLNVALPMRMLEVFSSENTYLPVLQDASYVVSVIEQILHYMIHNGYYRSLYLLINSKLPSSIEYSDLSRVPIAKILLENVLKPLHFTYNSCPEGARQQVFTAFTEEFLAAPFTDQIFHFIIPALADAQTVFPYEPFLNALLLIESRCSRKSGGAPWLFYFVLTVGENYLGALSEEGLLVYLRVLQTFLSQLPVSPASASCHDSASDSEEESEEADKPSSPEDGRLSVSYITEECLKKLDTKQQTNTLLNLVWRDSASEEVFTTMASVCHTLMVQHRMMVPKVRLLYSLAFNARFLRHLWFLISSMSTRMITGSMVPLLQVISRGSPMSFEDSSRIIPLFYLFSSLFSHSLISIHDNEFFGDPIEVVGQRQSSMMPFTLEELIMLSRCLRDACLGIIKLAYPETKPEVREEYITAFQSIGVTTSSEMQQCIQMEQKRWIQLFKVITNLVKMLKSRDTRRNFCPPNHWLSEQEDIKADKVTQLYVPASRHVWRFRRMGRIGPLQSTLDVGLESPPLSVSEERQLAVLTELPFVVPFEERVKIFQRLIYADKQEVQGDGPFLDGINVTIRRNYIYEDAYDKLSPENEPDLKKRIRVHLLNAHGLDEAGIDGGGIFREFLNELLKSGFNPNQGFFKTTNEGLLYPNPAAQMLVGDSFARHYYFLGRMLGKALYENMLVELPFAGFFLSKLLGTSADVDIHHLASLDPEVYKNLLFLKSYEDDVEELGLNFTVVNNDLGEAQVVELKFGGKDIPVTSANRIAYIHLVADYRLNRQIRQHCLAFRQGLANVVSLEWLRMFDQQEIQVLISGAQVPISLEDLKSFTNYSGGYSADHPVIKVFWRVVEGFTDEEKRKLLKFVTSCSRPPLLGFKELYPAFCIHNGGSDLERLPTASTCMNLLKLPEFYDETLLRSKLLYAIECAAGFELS

How the values were obtained:
[1] = molecular target: GST-tagged IL13Rα1 (human) (UniProt P78552); experiment: affinity purification with mass spectrometry; GST-IL13Rα1 (500 µg) on Glutathione-Sepharose 4B beads incubated with whole cell lysates of LNCaP cells at 4 °C overnight; bound proteins separated by SDS-PAGE and identified by MS; only the target purified
[2] = molecular target: GST-tagged IL13Rα1 (human) (UniProt P78552); experiment: as above; remark: listed apart in the source

binding [1]: binds
Molecule: ubiquitin protein ligase E3C (endogenous, LNCaP) (from UniProt Q15386 1-1083) (enzyme)

binding [2]: binds
B1: hexokinase 2 (endogenous, LNCaP) (enzyme, UniProt P52789 1-917)
chain: MIASHLLAYFFTELNHDQVQKVDQYLYHMRLSDETLLEISKRFRKEMEKGLGATTHPTAAVKMLPTFVRSTPDGTEHGEFLALDLGGTNFRVLWVKVTDNGLQKVEMENQIYAIPEDIMRGSGTQLFDHIAECLANFMDKLQIKDKKLPLGFTFSFPCHQTKLDESFLVSWTKGFKSSGVEGRDVVALIRKAIQRRGDFDIDIVAVVNDTVGTMMTCGYDDHNCEIGLIVGTGSNACYMEEMRHIDMVEGDEGRMCINMEWGAFGDDGSLNDIRTEFDQEIDMGSLNPGKQLFEKMISGMYMGELVRLILVKMAKEELLFGGKLSPELLNTGRFETKDISDIEGEKDGIRKAREVLMRLGLDPTQEDCVATHRICQIVSTRSASLCAATLAAVLQRIKENKGEERLRSTIGVDGSVYKKHPHFAKRLHKTVRRLVPGCDVRFLRSEDGSGKGAAMVTAVAYRLADQHRARQKTLEHLQLSHDQLLEVKRRMKVEMERGLSKETHASAPVKMLPTYVCATPDGTEKGDFLALDLGGTNFRVLLVRVRNGKWGGVEMHNKIYAIPQEVMHGTGDELFDHIVQCIADFLEYMGMKGVSLPLGFTFSFPCQQNSLDESILLKWTKGFKASGCEGEDVVTLLKEAIHRREEFDLDVVAVVNDTVGTMMTCGFEDPHCEVGLIVGTGSNACYMEEMRNVELVEGEEGRMCVNMEWGAFGDNGCLDDFRTEFDVAVDELSLNPGKQRFEKMISGMYLGEIVRNILIDFTKRGLLFRGRISERLKTRGIFETKFLSQIESDCLALLQVRAILQHLGLESTCDDSIIVKEVCTVVARRAAQLCGAGMAAVVDRIRENRGLDALKVTVGVDGTLYKLHPHFAKVMHETVKDLAPKCDVSFLQSEDGSGKGAALITAVACRIREAGQR
